According to PubChem BioAssay AID1347076 (National Center for Advancing Translational Sciences (NCATS), 2019):
Screen size: about 400,000 compounds; about 13,000 (3.2%) were called active. Inconclusive results, whose numbers are uncertain, are shown with a selection of clear calls. The call rests on the fitted dose curve; in most records, active means well fitted cell-killing curve with a large enough effect; inconclusive means small, poorly fitted or top-dose-only effect, or effect the other way; inactive means flat fitted curve, though single readings scatter. Potencies of inconclusive entries are doubtful fits and often do not repeat.

assay: qHTS assay for MDR1-selective chemotherapeutics: Primary screen using the drug-selected MDR subline cells KB-V1; conditions: KB-V1 MDR cells viability, CellTiter-Glo, 72 h; activity change, negative = cytotoxicity: at 46.1 µM (top of the series); further: nearly all actives have a fitted effect of over 60% in size
How it was run: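 Cytotoxicity toward P-gp-expressing KB-V1 cells was determined as loss of CellTiter-Glo luminescence after 72 h at 37 degrees C. Compounds were tested in quantitative HTS format across a concentration range, with curves fitted to normalized data.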
On the % scale 0 is the no-effect control and ±100 the full control effect; potency means the concentration at half of the fitted maximal effect.

Structure (SMILES) | Potency | activity change, negative = cytotoxicity
COc1cccc(N2CCN(C(=O)C3CCCN(S(=O)(=O)c4cccc5nsnc45)C3)CC2)c1 (centres undefined) | inconclusive: 7.31 µM [cytotoxic, partial curve] | –
O=C(Nc1nnc(C2CCCCC2)s1)c1cccs1 | inconclusive: 4.61 µM [cytotoxic, partial curve] | –
COc1ccc2c(c1)[n+](=O)c(C(C)=O)c(C)n2[O-] | – | inactive: 0.733%
Cc1cc(C(=O)CN2C(=O)NC3(CCCCC3)C2=O)c(C)n1C | inconclusive: 29.1 µM [rising, partial curve, poor fit] | –
CCCCOP(=O)(OCCCC)C1(C)CC(=O)CC(C)(C)C1 (centres undefined) | – | inconclusive: -38.1% [cytotoxic]
COc1cc(C(=O)OCC(=O)Nc2ccc(SC(F)F)cc2)cc(OC)c1OC | active: 14.6 µM | –
COc1ccc(CN(C)CCCn2cnc3c(SC)ncnc32)cc1OC | inconclusive: 7.31 µM [cytotoxic, partial curve] | –
CCOC(=O)c1ccc2c(c1)nc(SCC(=O)c1cc3ccccc3o1)n2CC | active: 18.4 µM | –
O=C(Nc1cccc(Cl)c1)C1CCCN(c2nn3cc(-c4ccc(F)cc4)nc3s2)C1 (centres undefined) | inconclusive: 4.11 µM [cytotoxic, full curve] | –
CCc1ccc2c(c1)C(c1ccc([N+](=O)[O-])cc1)=NNC(c1ccc(F)cc1)=N2 | inconclusive: 6.51 µM [cytotoxic, partial curve] | –
COc1ccc(C(=O)Nc2nc(-c3cccs3)cs2)cc1 | active: 5.8 µM | –
COc1ccc(/C=C2\COc3ccccc3C2=O)c(OC)c1 | – | inactive: -26.4%
Cc1ccc(S(=O)(=O)c2cn(CC(=O)Nc3cccc(Cl)c3)c3ccccc3c2=O)cc1 | inconclusive: 7.31 µM [rising, partial curve] | –
Cc1ccc(Cl)cc1NC(=O)CSc1nc2ccccc2c2nc(-c3ccccc3)nn12 | – | inactive: -1.52%
CCOc1ccc(NC(=O)CSc2nnc(-c3ccco3)n2N)cc1 | – | inactive: 26.8%
O=c1[nH]c(=O)n(C(c2ccccc2)c2ccccc2)cc1Br | – | inactive: -11.8%
COc1cc(C(=O)COC(=O)c2ccc3c(c2)OCCO3)cc(OC)c1OC | inconclusive: 0.291 µM [cytotoxic, full curve, poor fit] | –
O=C(CN1c2cccc3cccc(c23)S1(=O)=O)N1CCN(c2ccccc2)CC1 | active: 9.2 µM | –
Cc1cc(O)c(C(=O)/C=C/c2ccccc2O)c(=O)o1 | – | inactive: 19.5%
COc1ccc(NC(=O)CSC2=Nc3ccccc3C3=NC(CC(=O)NCc4ccco4)C(=O)N23)cc1 (centres undefined) | – | inactive: 12%
Cc1cc(OC(=O)c2cc(C(F)(F)F)cc(C(F)(F)F)c2)c([N+](=O)[O-])c(=O)[nH]1 | – | inactive: 6.04%
O=C(c1ccc(Cl)cc1Cl)N1CCOCC1 | inconclusive: 29.1 µM [rising, single point] | –
CCOc1cc(C(=O)Nc2cccc(OCC(=O)N3CCOCC3)c2)cc(OCC)c1OCC | – | inactive: -1.67%
CCN(C(=O)CSc1nnc(-c2cc(OC)c(OC)c(OC)c2)o1)c1ccccc1 | inconclusive: 16.4 µM [cytotoxic, single point] | –
Cc1cc(C)nc(N(C#N)CC(=O)c2ccccc2)n1 | inconclusive: 29.1 µM [cytotoxic, single point] | –

Structure (SMILES) | Potency | activity change, negative = cytotoxicity
c1ccc(CN2CCC(Nc3nc(-c4ccccc4)nc4ccccc34)CC2)cc1 | inconclusive: 18.4 µM [cytotoxic, single point] | –
CC(OC(=O)c1cc2sccc2n1C)C(=O)NCC1CCCO1 (centres undefined) | – | inactive: 9.66%
COc1ccc(-c2ccccc2)cc1NCc1ccc(OC)c(OC)c1 | active: 16.4 µM | –
O=C(NN=Cc1ccc2c(c1)OCO2)c1ccncc1 | inconclusive: 23.1 µM [rising, single point] | –
Cn1nnnc1SCC(=O)Nc1nc2c(F)c(F)c(F)cc2s1 | – | inactive: 14.9%
CCOc1ccc(NC(=O)Cn2cc(C(=O)c3cccs3)c3ccccc32)cc1 | – | inactive: -26.6%
Cn1c(=O)c(=O)n(C)c2cc([N+](=O)[O-])c(N3CCOCC3)cc21 | inconclusive: 23.1 µM [rising, partial curve] | –
COc1cccc2sc(N3CCN(c4nc5ccccc5s4)CC3)nc12 | inconclusive: 20.6 µM [cytotoxic, partial curve] | –
CCn1c(SCC(=O)Nc2nc(-c3ccc(C)cc3)cs2)nnc1-c1ccccc1 | active: 2.59 µM | –
COc1ccc(NC(=S)N2CCN(S(=O)(=O)c3ccc(C)cc3)CC2)cc1 | inconclusive: 29.1 µM [cytotoxic, single point] | –
C=C(C)C(=O)N1CC2(CC(c3cccc(NC(=O)CC(c4ccccc4)c4ccccc4)c3)=NO2)C[C@H]1C(N)=O (some centres undefined) | – | inconclusive: -0.848%
CN1CCc2c1nc1ccccc1c2N=C1CCCN1Cc1ccccc1 | inconclusive: 29.1 µM [cytotoxic, single point] | –
CSc1nnc(-c2cc3c(s2)-c2ccccc2CC3)o1 | inconclusive: 23.1 µM [cytotoxic, single point] | –
CN1CCN(C(=O)/C=C/c2ccc(C#N)cc2)CC1 | inconclusive: 32.6 µM [rising, partial curve, poor fit] | –
C=CCC[C@H](Cc1ccc(F)cc1)C(=O)OC[C@H](Cc1c[nH]c2ccccc12)NC(=O)[C@@H](CC=C)CC(=O)N(CCO)Cc1ccccc1 | active: 20.6 µM | –
COc1ccccc1-n1ccnc(SCC(=O)NCc2ccccc2)c1=O | – | inactive: -1.52%
Cc1ccc(-c2ccc(OCC(=O)N3CCOCC3)cc2)cc1 | – | inactive: -3.51%
COc1cc(/C=N/NC(=O)Nc2ccccc2)ccc1OCCOc1ccccc1C | active: 2.31 µM | –
CCCCn1cnc2c(SCc3cccc(F)c3)nc(N)nc21 | – | inactive: 8.27%
CCOc1ccc(S(=O)(=O)N2CCCCC2)cc1NC(=O)C1CSC2(C)CCC(=O)N12 (centres undefined) | – | inactive: -0.253%
COc1cc2c(cc1OC)CN(C(=O)c1ccc(Br)o1)CC2 | – | inactive: -22.7%
Cc1cccc(-n2ncc3c(N)ncnc32)c1 | active: 8.2 µM | –
COc1cccc(Nc2nnc(SCC(=O)N3CCOCC3)s2)c1 | inconclusive: 25.9 µM [cytotoxic, partial curve, poor fit] | –
Cn1c(=O)c2cc(NC(=S)NCc3ccccc3F)ccc2n1C | – | inactive: 3.14%
COc1ccc(S(=O)(=O)c2c(Nc3c(C)cccc3C)sc(C(=O)c3ccc4c(c3)OCO4)c2N)cc1 | inconclusive: 3.26 µM [cytotoxic, partial curve, poor fit] | –

Ordered by SMILES length (largest number first): four of the compounds above
Structure (SMILES) | Potency | activity change, negative = cytotoxicity
COc1ccc(S(=O)(=O)c2c(Nc3c(C)cccc3C)sc(C(=O)c3ccc4c(c3)OCO4)c2N)cc1 | inconclusive: 3.26 µM [cytotoxic, partial curve, poor fit] | –
COc1cccc2sc(N3CCN(c4nc5ccccc5s4)CC3)nc12 | inconclusive: 20.6 µM [cytotoxic, partial curve] | –
COc1cccc(Nc2nnc(SCC(=O)N3CCOCC3)s2)c1 | inconclusive: 25.9 µM [cytotoxic, partial curve, poor fit] | –
CCCCn1cnc2c(SCc3cccc(F)c3)nc(N)nc21 | – | inactive: 8.27%

Following part.

Structure (SMILES) | Potency | activity change, negative = cytotoxicity
COc1ccc(N/N=C(/C)c2cnnc(-c3ccccc3)n2)cc1 | inconclusive: 20.6 µM [cytotoxic, single point] | –
COc1ccc(CN(C)c2ccc(-c3nc(-c4ccccc4)no3)cc2[N+](=O)[O-])cc1 | – | inactive: -4.69%
O=C(COC(=O)c1ccccc1NCCO)NCCc1ccccc1 | inconclusive: 29.1 µM [rising, single point] | –
O=C(CSc1nnc(CNc2ccc(F)cc2)n1Cc1ccco1)N1CCCC1 | inconclusive: 18.4 µM [cytotoxic, partial curve, poor fit] | –
CCCCN1C2=C(C(=O)CC(C)(C)C2)C(c2ccccc2)C2=C1c1ccccc1C2=O (centres undefined) | inconclusive: 16.4 µM [cytotoxic, single point] | –
COc1ccc2c(CC(=O)Nc3ccc(C)cc3)coc2c1 | – | inactive: 6.71%
O=C(NCc1cccnc1)c1ccc(NC(=O)c2ccc(Br)cc2)cc1 | – | inactive: -11.4%
C#CCOCCOCCOCCNc1nc(N2CCN(C(=O)Cn3cc(CC(C)O)nn3)CC2)nc(N2CCN(C(=O)[C@H](CCCCN)n3cc(CC(C)O)nn3)CC2)n1 (some centres undefined) | inconclusive: 2.31 µM [cytotoxic, full curve] | –
COCCn1c(SCc2cccc([N+](=O)[O-])c2)nc2ccccc2c1=O | active: 11.6 µM | –
Cc1cccc(Nc2nc(N)nc(CN3CCN(c4ccc(F)cc4)CC3)n2)c1 | inconclusive: 29.1 µM [cytotoxic, single point] | –
CCCC(CCC)=NNc1ccc(S(=O)(=O)Nc2ccccc2OC)cc1[N+](=O)[O-] | active: 11.6 µM | –
COc1ccc(NC(C)C(=O)Nc2cc(C(F)(F)F)ccc2N2CCOCC2)c(OC)c1 (centres undefined) | inconclusive: 20.6 µM [cytotoxic, single point] | –
CC(C)Sc1nc(N2CCOCC2)c2c(c1C#N)CC(C)(C)SC2 | active: 6.51 µM | –
COC(=O)c1c(NC(=O)/C=C/C(=O)O)sc(Cc2ccccc2)c1C | inconclusive: 20.6 µM [cytotoxic, single point] | –
Cc1cc(C)c(C)c(S(=O)(=O)N2CCN(CC(=O)NC(=O)NCc3ccccc3)CC2)c1C | inconclusive: 25.9 µM [cytotoxic, partial curve, poor fit] | –
O=C1/C(=C/c2cccc([N+](=O)[O-])c2)CSc2ccc(Cl)cc21 | – | inactive: 0%
Cn1c(C(c2cc3ccccc3n2C)c2cc3ccccc3n2C)cc2ccccc21 | inconclusive: 20.6 µM [cytotoxic, single point] | –
CC(=O)Nc1ccc(CN2C(=O)C(Cc3ccccc3)ON=C2c2ncccc2C)cc1 (centres undefined) | – | inactive: -23.5%
O=c1[nH]c2ccccc2n1Cc1ccc(Cl)cc1 | inconclusive: 29.1 µM [cytotoxic, single point] | –
CCOc1ccccc1NC(=O)C1CCN(S(=O)(=O)c2cc(Br)cc3c2N(C(C)=O)CC3)CC1 | – | inactive: 17.4%
Cc1cccc(N2CCN(S(=O)(=O)c3ccc4c(c3)C(C(C)C)C(=O)N4)CC2)c1C (centres undefined) | inconclusive: 14.6 µM [cytotoxic, single point] | –
O=S(=O)(c1ccc(Oc2ccc(Br)cc2F)nc1)N1CCCCC1 | active: 23.1 µM | –
O=c1c2ccccc2nc(SCc2cccc(F)c2)n1Cc1ccco1 | active: 7.31 µM | –
Cc1ccc(CNC(=O)Cn2c(=O)c3sccc3n(Cc3ccc([N+](=O)[O-])cc3)c2=O)cc1 | inconclusive: 23.1 µM [cytotoxic, single point] | –
